Reference: the supplement of paper PMC12819154, “High-throughput peptide-centric local stability assay extends protein–ligand identification to membrane proteins, tissues and bacteria” (Nature Structural & Molecular Biology, 2025)
This is one part of the list. Small differences around the control level are noise.

Sequences of proteins named here, by UniProt entry; tags and fusion partners are left off. A change or cut given only in a name is not applied to a line headed by its entry.
UniProt O35607: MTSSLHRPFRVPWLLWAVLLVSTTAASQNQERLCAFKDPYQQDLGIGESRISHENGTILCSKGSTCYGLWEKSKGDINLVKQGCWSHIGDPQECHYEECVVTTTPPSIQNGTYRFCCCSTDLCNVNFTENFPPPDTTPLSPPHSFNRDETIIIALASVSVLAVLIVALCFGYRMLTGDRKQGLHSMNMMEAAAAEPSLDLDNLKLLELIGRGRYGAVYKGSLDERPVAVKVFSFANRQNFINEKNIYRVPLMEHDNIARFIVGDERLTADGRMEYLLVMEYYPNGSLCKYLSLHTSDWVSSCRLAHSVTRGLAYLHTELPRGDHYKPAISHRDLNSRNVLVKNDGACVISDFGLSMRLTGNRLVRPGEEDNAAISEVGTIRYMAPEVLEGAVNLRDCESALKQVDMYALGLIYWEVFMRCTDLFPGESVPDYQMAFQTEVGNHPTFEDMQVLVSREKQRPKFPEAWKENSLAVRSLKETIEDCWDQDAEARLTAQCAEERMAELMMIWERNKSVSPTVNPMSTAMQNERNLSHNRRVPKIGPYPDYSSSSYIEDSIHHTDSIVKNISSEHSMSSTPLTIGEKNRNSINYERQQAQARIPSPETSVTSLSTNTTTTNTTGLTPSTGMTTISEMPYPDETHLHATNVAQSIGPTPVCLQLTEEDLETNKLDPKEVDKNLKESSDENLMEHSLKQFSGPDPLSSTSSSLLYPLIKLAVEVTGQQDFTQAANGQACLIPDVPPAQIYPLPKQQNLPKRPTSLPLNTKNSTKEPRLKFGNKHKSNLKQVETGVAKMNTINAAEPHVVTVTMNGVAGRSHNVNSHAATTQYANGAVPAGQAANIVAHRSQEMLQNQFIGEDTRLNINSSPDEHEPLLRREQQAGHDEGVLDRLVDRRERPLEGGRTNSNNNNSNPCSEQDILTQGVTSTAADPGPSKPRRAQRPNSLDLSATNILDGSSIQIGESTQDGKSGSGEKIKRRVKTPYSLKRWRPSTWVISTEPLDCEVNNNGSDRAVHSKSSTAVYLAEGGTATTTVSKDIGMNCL
UniProt O55070: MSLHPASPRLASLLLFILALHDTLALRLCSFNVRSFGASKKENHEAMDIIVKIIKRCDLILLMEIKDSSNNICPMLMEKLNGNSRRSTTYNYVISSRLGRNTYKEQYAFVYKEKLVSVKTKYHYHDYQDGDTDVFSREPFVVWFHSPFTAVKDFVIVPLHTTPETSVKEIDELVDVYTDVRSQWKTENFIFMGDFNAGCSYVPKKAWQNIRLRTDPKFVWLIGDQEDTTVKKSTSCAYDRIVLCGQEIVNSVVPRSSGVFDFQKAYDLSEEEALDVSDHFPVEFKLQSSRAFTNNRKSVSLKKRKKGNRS
UniProt O88848: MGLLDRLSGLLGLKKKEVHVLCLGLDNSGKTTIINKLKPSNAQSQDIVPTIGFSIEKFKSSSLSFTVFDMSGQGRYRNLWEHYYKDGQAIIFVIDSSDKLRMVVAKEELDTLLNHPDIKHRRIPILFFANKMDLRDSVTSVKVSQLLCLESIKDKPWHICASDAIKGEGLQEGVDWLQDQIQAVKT
UniProt O54918, whole entry: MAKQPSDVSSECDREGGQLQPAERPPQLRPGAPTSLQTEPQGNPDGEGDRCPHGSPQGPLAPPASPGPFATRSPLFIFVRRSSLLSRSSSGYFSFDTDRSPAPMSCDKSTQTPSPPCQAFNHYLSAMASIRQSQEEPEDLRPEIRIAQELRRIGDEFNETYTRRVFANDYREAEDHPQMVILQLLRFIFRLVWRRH
UniProt O70167: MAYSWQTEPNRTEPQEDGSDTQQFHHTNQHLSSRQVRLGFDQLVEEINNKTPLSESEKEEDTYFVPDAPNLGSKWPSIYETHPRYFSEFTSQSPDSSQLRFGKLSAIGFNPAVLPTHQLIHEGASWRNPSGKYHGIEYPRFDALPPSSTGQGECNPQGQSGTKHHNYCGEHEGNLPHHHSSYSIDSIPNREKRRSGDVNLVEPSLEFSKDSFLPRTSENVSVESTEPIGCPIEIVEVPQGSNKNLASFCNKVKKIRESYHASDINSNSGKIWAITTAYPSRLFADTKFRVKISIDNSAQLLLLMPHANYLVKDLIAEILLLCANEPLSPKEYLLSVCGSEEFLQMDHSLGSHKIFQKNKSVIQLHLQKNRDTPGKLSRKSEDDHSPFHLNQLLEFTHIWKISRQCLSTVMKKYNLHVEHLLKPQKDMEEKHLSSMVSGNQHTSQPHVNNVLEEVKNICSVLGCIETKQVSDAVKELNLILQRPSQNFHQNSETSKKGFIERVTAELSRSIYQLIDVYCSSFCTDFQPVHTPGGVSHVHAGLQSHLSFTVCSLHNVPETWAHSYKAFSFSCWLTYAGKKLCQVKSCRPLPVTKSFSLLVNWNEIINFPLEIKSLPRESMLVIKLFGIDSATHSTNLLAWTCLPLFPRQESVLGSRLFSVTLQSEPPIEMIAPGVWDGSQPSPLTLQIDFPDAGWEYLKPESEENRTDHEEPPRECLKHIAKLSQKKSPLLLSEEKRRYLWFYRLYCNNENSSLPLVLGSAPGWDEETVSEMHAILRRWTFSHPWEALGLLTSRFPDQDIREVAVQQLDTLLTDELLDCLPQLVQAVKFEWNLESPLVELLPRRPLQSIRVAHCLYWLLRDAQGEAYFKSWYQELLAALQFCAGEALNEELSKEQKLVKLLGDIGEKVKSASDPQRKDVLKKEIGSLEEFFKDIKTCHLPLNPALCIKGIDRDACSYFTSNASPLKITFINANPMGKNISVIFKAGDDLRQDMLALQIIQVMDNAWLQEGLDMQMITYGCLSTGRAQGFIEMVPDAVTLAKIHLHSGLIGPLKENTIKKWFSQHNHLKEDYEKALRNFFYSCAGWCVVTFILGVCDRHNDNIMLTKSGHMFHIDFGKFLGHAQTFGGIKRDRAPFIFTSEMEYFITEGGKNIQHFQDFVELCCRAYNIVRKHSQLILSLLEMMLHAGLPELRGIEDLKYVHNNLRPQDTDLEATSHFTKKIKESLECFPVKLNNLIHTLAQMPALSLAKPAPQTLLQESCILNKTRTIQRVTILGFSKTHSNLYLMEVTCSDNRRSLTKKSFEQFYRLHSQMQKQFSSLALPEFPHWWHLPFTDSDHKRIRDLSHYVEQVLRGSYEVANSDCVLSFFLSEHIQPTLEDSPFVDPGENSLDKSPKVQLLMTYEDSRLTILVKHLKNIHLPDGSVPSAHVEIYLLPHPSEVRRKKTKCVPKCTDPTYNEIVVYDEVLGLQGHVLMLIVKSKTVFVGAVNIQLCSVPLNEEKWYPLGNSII
UniProt O70230: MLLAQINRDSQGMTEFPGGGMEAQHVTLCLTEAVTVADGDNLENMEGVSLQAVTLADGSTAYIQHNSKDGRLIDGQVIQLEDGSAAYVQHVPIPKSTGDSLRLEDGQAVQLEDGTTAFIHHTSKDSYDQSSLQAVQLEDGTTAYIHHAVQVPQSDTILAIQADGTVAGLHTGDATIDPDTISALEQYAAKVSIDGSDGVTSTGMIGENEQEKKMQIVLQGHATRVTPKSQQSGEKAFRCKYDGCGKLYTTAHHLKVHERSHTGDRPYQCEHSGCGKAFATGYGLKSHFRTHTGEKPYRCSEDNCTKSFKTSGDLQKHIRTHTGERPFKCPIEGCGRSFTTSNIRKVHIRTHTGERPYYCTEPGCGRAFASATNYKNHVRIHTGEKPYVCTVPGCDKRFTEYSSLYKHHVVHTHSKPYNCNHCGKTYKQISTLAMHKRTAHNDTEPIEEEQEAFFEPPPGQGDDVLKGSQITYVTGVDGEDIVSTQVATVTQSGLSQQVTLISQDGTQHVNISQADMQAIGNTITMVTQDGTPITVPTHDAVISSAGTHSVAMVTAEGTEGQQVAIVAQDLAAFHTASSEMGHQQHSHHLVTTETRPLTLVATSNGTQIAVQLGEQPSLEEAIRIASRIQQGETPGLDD
UniProt O70451: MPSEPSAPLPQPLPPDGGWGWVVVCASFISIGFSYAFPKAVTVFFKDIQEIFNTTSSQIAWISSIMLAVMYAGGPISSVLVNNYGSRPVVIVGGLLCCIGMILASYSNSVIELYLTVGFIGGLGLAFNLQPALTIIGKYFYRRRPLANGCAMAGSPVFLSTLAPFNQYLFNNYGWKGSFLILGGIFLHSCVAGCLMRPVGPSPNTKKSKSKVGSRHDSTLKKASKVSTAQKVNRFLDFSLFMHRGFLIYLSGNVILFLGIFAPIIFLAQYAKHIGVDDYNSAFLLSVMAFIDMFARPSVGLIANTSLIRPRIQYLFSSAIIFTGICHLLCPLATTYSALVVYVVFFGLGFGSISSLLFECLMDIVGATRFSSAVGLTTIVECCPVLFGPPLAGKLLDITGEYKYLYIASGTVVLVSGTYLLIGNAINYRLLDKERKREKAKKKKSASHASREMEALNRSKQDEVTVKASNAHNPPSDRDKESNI
UniProt O88413: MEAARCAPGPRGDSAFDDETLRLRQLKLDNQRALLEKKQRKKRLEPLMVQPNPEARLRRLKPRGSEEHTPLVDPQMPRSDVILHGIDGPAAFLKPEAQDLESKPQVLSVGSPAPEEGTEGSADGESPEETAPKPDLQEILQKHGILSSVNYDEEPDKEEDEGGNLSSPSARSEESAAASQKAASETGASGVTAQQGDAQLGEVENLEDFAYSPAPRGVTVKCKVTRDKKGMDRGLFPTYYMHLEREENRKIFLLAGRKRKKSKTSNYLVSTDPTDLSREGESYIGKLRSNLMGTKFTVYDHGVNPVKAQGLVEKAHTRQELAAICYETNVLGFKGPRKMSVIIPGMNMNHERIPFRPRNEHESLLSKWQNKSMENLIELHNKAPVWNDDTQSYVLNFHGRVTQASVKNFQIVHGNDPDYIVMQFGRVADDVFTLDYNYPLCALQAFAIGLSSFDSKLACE
UniProt O88685, whole entry: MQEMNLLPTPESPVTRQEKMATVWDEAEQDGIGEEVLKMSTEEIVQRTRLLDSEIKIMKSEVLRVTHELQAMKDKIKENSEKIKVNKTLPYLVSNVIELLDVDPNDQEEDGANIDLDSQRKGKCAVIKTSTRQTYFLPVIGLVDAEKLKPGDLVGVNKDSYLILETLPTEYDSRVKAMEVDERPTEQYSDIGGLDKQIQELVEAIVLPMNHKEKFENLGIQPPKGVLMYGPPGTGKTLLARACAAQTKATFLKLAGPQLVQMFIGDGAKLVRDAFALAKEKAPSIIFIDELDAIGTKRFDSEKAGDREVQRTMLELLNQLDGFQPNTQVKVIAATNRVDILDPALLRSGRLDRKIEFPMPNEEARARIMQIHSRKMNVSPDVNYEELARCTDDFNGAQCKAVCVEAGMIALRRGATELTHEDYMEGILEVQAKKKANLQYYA
UniProt O54754: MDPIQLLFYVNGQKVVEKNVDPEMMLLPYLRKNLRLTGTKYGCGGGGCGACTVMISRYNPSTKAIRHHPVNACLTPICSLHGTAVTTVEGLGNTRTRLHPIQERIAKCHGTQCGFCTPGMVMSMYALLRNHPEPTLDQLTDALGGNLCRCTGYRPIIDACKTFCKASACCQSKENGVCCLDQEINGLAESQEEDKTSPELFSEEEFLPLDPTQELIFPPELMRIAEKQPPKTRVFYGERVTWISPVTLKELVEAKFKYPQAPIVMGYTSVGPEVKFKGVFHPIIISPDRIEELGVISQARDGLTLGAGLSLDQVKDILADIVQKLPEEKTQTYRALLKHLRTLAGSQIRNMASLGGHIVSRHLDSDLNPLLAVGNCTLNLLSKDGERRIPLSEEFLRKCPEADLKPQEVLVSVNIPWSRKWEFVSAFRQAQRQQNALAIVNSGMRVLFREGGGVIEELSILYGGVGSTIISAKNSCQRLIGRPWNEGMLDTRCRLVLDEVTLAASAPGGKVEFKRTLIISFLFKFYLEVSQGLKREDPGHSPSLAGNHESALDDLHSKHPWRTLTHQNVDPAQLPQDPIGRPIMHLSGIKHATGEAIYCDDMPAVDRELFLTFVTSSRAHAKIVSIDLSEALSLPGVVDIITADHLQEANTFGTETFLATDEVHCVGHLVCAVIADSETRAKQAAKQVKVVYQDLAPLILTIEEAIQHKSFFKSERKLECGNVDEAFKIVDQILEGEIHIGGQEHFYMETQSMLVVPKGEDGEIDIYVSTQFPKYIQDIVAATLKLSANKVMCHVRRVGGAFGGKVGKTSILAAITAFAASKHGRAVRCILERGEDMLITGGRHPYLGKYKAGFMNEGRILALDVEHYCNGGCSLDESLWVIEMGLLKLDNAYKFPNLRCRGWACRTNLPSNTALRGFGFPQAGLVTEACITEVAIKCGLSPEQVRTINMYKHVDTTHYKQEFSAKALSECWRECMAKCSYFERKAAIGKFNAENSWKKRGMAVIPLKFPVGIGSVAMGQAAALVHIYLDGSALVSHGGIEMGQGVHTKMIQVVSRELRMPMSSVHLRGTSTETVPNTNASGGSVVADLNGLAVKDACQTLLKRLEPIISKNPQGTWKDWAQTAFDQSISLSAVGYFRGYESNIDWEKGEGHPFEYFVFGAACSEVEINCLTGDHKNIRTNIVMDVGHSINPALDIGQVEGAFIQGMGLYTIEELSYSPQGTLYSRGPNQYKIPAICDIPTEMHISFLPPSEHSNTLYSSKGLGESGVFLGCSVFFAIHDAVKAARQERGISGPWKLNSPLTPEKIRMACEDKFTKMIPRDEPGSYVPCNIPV

Compound: CN[C@@H]1C[C@H]2O[C@@](C)([C@@H]1OC)n1c3ccccc3c3c4c(c5c6ccccc6n2c5c31)C(=O)NC4 [staurosporine]
Assay: log2 fold change of tryptic peptide abundance, ligand vs vehicle (limited proteolysis) (log2 ratio); higher = more trypsin-susceptible (destabilized)
Details: ligand concentration: 20 uM; sample: mouse liver crude lysate; replicate design: treated separately

Target | log2 fold change
UniProt O88866 (peptide sequence: RLDEAEAR, peptide start residue: 157) | 0.221
UniProt O35963 (peptide sequence: AVDIDGER, peptide start residue: 74) | -0.139
UniProt O70373 (peptide sequence: LATAEAQSLHQQVLSR, peptide start residue: 1064) | -0.237
UniProt O70456 (peptide sequence: SAVEKGEELSCEER, peptide start residue: 28) | -0.328
UniProt O70303 (peptide sequence: ITFDVYK, peptide start residue: 133) | -0.167
UniProt O35607 (peptide sequence: NISSEHSMSSTPLTIGEK, peptide start residue: 565) | -0.234
UniProt O88532 (peptide sequence: HATIYPTEEELQAVQK, peptide start residue: 731) | -0.687
UniProt O35954 (peptide sequence: ASPEPSALPAQR, peptide start residue: 620) | 0.152
UniProt O88874 (peptide sequence: LEATHPPLPPAHPPPDR, peptide start residue: 360) | 0.279
UniProt O35598 (peptide sequence: ESYQMGHMR, peptide start residue: 740) | -0.0968
UniProt O70139 (peptide sequence: RNAVPDIQGDSEAVSVR, peptide start residue: 20) | 0.103
UniProt O55201 (peptide sequence: EEELGEYYMKK, peptide start residue: 132) | -1.01
UniProt O55060 (peptide sequence: NQVLTLEDWKEK, peptide start residue: 16) | -0.22
UniProt O54828 (peptide sequence: KVANFFQIK, peptide start residue: 623) | 0.184
UniProt O54824 (peptide sequence: FSGLLGQGATVTAK, peptide start residue: 877) | -0.15
UniProt O55070 (peptide sequence: RSTTYNYVISSR, peptide start residue: 86) | -0.855
UniProt O88848 (peptide sequence: KKEVHVLCLGLDNSGK, peptide start residue: 15) | 0.857
UniProt O35682 (peptide sequence: SMDPSCTR, peptide start residue: 268) | -0.00485
UniProt O70477 (peptide sequence: SWLFQHIGHPYPTEDEKK, peptide start residue: 276) | 0.218
UniProt O54774 (peptide sequence: SIQGHHVCLLVK, peptide start residue: 1156) | -0.736
UniProt O70400 (peptide sequence: ERVTPPEGYDVVTVFRE, peptide start residue: 311) | -0.409
UniProt O88396 (peptide sequence: EVQDLTLR, peptide start residue: 71) | 0.127
UniProt O88384 (peptide sequence: YGTYTLENEHLNR, peptide start residue: 112) | -0.148
UniProt O54918 (peptide sequence: SPLFIFVR, peptide start residue: 73) | -0.0925
UniProt O35625 (peptide sequence: TAVLGGTASGHGK, peptide start residue: 501) | -0.386

Target | log2 fold change
UniProt O35618 (peptide sequence: KDWYSDCSK, peptide start residue: 327) | 0.486
UniProt O88441 (peptide sequence: RIEQHYFEDWGK, peptide start residue: 248) | -0.366
UniProt O35638 (peptide sequence: YVGWTMHDK, peptide start residue: 331) | 0.692
UniProt O55022 (peptide sequence: RFDGVQDPR, peptide start residue: 80) | -0.204
UniProt O88379 (peptide sequence: QSTESSPVPLNR, peptide start residue: 1411) | 0.231
UniProt O55071 (peptide sequence: EIDQVIGSHRLPTLDDR, peptide start residue: 327) | -0.127
UniProt O54834 (peptide sequence: LSLNPIYR, peptide start residue: 403) | -0.348
UniProt O70167 (peptide sequence: RPLQSIR, peptide start residue: 842) | -0.352
UniProt O35658 (peptide sequence: AFVEFLTDEIKEEK, peptide start residue: 78) | 0.141
UniProt O70309 (peptide sequence: ARYEMASNPLYR, peptide start residue: 764) | -0.221
UniProt O70230 (peptide sequence: MQIVLQGHATR, peptide start residue: 214) | -0.155
UniProt O70451 (peptide sequence: EMEALNR, peptide start residue: 452) | -0.142
UniProt O70583 (peptide sequence: VSHDNLTVERDESSSK, peptide start residue: 512) | 0.374
UniProt O35710 (peptide sequence: TNQVAIAQTLECKESGR, peptide start residue: 260) | 0.37
UniProt O88413 (peptide sequence: GSEEHTPLVDPQMPR, peptide start residue: 64) | 0.261
UniProt O35955 (peptide sequence: FAPGTTPVLTR, peptide start residue: 243) | 0.129
UniProt O88685 (peptide sequence: KIEFPMPNEEAR, peptide start residue: 354) | -0.192
UniProt O88622 (peptide sequence: LENVPQLNLDKSPTEK, peptide start residue: 124) | -0.0976
UniProt O88456 (peptide sequence: TDGFGIDTCR, peptide start residue: 136) | -0.173
UniProt O88487 (peptide sequence: TLKKDEENDSK, peptide start residue: 166) | 0.352
UniProt O35551 (peptide sequence: ATVEQLMFEEK, peptide start residue: 791) | 0.362
UniProt O54749 (peptide sequence: LFVSHIVK, peptide start residue: 256) | 0.268
UniProt O88291 (peptide sequence: MAFTCSFCK, peptide start residue: 310) | 0.14
UniProt O54754 (peptide sequence: VTWISPVTLK, peptide start residue: 240) | 0.176

4 entries picked at random from the list so far:
Target | log2 fold change
UniProt O88413 (peptide sequence: GSEEHTPLVDPQMPR, peptide start residue: 64) | 0.261
UniProt O35618 (peptide sequence: KDWYSDCSK, peptide start residue: 327) | 0.486
UniProt O70309 (peptide sequence: ARYEMASNPLYR, peptide start residue: 764) | -0.221
UniProt O54749 (peptide sequence: LFVSHIVK, peptide start residue: 256) | 0.268
